Laboratory results published in patent US20260263521A1, “ANTI-CD200R1 ANTIBODY AND USE THEREOF” (AIMED BIO INC., priority 2023, published 2026).
No constants are given. Whether binding was seen depends on the method and setting. Some results given as binding are weak or reduced against the parent protein; the word gives no strength. For some of these results: Where a sequence is shown, tags or fusion partners need not be part of it.

The chains behind the UniProt entries cited, without tags or fusion partners. Residues count along the entry.
UniProt Q9ES57, residues 26-238: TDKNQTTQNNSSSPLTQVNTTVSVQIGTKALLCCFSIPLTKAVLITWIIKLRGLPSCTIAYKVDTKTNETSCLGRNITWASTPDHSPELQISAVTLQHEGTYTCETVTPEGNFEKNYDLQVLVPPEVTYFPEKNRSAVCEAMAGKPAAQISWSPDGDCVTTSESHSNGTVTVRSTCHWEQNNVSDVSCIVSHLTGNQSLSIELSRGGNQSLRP

What was measured:
[1] = biological target: T1, Hybrid CD200R1 MH (mouse;human) (UniProt Q9ES57+Q8TD46); test: ELISA, plate-bound MH hybrid (1 ug/mL), antibody 0.0192-300 nM, O.D 450 nm; panel 'P001 MH domain-3)'
[2] = biological target: T1, Hybrid CD200R1 MH (mouse;human); test: ELISA, plate-bound MH hybrid (1 ug/mL), antibody 0.0192-300 nM, O.D 450 nm; panel 'P001 MH domain-4)'
[3] = biological target: T2, recombinant human CD200R1 Fc chimera protein, CF (R&D systems, 3414-CD) (human) (UniProt Q8TD46); test: ELISA, plate-bound human CD200R1-Fc (2 ug/mL), IgG 0.0192-300 nM, anti-human IgG F(ab')2-HRP, OD 450 nm; panel 'human CD200R1'
T2 sequence (looked up): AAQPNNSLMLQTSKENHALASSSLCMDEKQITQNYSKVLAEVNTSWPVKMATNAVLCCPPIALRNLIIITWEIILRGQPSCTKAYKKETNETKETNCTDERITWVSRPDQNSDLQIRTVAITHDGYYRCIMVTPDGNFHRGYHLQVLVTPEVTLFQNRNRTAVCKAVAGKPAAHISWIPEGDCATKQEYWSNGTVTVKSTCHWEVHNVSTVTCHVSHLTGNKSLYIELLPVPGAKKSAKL

[4] = biological target: human CD200R1 expressed on cells (Jurkat-CD200R1, U937-CD200R1, HH cells) (human) (UniProt Q8TD46); test: flow cytometry, IgG1 form at 500 nM; MFI normalized to P001017 (chimeric OX108) = 100; upper panel 'CD200R1 highly expressing cell' (HH), lower panel 'Exogenous CD200R1(+) cell' (Jurkat-CD200R1)
[5] = biological target: human CD200R1 expressed on cells (Jurkat-CD200R1, U937-CD200R1, HH cells) (human) (UniProt Q8TD46); test: flow cytometry as in Example 12, IgG4 form; MFI normalized to chOX108 = 100; panels 'CD200R1 highly expressing cell (IgG4)' (HH) and 'Exogenous CD200R1 O/E cell (IgG4)' (Jurkat-CD200R1)
[6] = biological target: human CD200R1 expressed on cells (Jurkat-CD200R1, U937-CD200R1, HH cells) (human) (UniProt Q8TD46); test: flow cytometry as in Example 12, LALAPG form; MFI normalized to chOX108 = 100; panels 'CD200R1 highly expressing cell (LALAPG)' (HH) and 'Exogenous CD200R1 O/E cell (LALAPG)' (Jurkat-CD200R1)
[7] = biological target: human CD200R1 expressed on cells (Jurkat-CD200R1, U937-CD200R1, HH cells) (human) (UniProt Q8TD46); test: flow cytometry on Jurkat-CD200R and HH cells; IgG4 and LALAPG forms
[8] = biological target: T3, human CD200R1 recombinant protein (construct not stated) (human) (UniProt Q8TD46); test: ELISA on human CD200R1, O.D 450 nm, about 0.4-300 nM
T3 sequence (looked up): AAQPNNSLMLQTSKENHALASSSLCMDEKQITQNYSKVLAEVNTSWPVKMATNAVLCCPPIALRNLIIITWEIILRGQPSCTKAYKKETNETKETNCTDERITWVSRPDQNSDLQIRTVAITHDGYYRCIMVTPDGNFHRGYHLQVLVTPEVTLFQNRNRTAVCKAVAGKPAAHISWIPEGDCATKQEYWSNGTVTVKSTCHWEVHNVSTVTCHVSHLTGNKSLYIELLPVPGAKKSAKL

[9] = biological target: mouse CD200R1 protein (R&D systems, 2554-CD) (mouse) (UniProt Q9ES57); test: ELISA on mouse CD200R1, O.D 450 nm, 0.0192-300 nM; panel 'P001_CD200R1 mouse 1'
[10] = biological target: human CD200R1 expressed on cells (Jurkat-CD200R1, U937-CD200R1, HH cells) (human) (UniProt Q8TD46); test: cell binding assay (FACS); HH cells by the legend of FIG. 9
[11] = biological target: T3, human CD200R1 recombinant protein (construct not stated) (human); test: antigen binding assay (ELISA), affinity screening against P001018

B1: P001013 (IgG) (antibody, V domains shown)
VH: EVQLLESGGGLVQPGGSLRLSCAASGFTFSGYDMSWVRQAPGKGLEWVSGIPPGDGSTYYADSVKGRFTISRDNSKNTLYLQMNSLRAEDTAVYYCAKHLVSDHPPSQYSDDGMDVWGQGTLVTVSS
VL: QSVLTQPPSASGTPGQRVTISCSGSSSNIGNNDVNWYQQLPGTAPKLLIYYNSQRPSGVPDRFSGSKSGTSASLAISGLRSEDEADYYCGSWDYSLNGYVFGGGTKLTVL
binding [1]: binds

B2: 6A8 (hybridoma clone) (antibody, V domains shown)
VH: QVQLQQPGAELVKPGAPVKLSCKASGYTFTSYWMNWVKQRPGRGLEWIGRIDPSDSETHYNQKFKDKATLTVDKSSSTAYIQLSSLTSEDSAVYYCARSGGWLPGFAYWGQGTLVTVSA
VL: ENVLTQSPAIMSASPGEKVTMTCSASSSLSYMLWYQQKSSTSPKLWIYDTSKLASGVPGRFSGSGSGNSYSLTISSMEAEDVGTYYCFQGSGNPLMYTFGGGTKLEIK
binding [2]: binds

B3: 6C3 (hybridoma clone) (antibody, V domains shown)
VH: QVQLQQPGAELVRPGASVKLSCKASAYTFTSYWMNWVKQRPEQGLEWIGRIDPYDSETHYNQKFKDKAILTVDKSSSTAYMQLSSLTSEDSAVYYCARVDGNHLFDYWGQGTTLTVSS
VL: DIKMTQSPSSMYASLGERVTITCKASQDINSYLSWFQQKPGKSPKTLIYRANRLVDGVPSRFSGSGSGQDYSLTISSLEYEDMGIYYCLQYDEFPYTFGGGTKLEIK
binding [2]: binds

B4: P001006 (IgG) (antibody, V domains shown)
VH: EVQLLESGGGLVQPGGSLRLSCAASGFTFSDYAMSWVRQAPGKGLEWVSGISYGNGNTYYADSVKGRFTISRDNSKNTLYLQMNSLRAEDTAVYYCAKDPWQTAINDFDYWGQGTLVTVSS
VL: QSVLTQPPSASGTPGQRVTISCTGSSSNIGNNSVNWYQQLPGTAPKLLIYTNSHRPSEVPDRFSGSKSGTSASLAISGLRSEDEADYYCGTWDSSLSGYVFGGGTKLTVL
binding [3]: binds
binding [4]: binds
binding [5]: binds
binding [6]: binds
binding [7]: binds

B5: P001008 (IgG) (antibody, V domains shown)
VH: EVQLLESGGGLVQPGGSLRLSCAASGFTFSSYDMSWVRQAPGKGLEWVSWISHGGGSIYYADSVKGRFTISRDNSKNTLYLQMNSLRAEDTAVYYCARDAPALMHSLFDYWGQGTLVTVSS
VL: QSVLTQPPSASGTPGQRVTISCSGSSSNIGSNHVNWYQQLPGTAPKLLIYYDSQRPSGVPDRFSGSKSGTSASLAISGLRSEDEADYYCGSWDASLNGYVFGGGTKLTVL
binding [4]: binds
binding [5]: binds
binding [6]: binds
binding [7]: binds

B6: P001010 (IgG) (antibody, V domains shown)
VH: EVQLLESGGGLVQPGGSLRLSCAASGFTFSNYAMSWVRQAPGKGLEWVSSISPGGGSIYYADSVKGRFTISRDNSKNTLYLQMNSLRAEDTAVYYCARDPGQMFWPLFDYWGQGTLVTVSS
VL: QSVLTQPPSASGTPGQRVTISCTGSSSNIGSNNVSWYQQLPGTAPKLLIYDDSHRPSGVPDRFSGSKSGTSASLAISGLRSEDEADYYCGSWDASLNGYVFGGGTKLTVL
binding [4]: binds

B7: P001012 (IgG) (antibody, V domains shown)
VH: EVQLLESGGGLVQPGGSLRLSCAASGFTFSGYDMSWVRQAPGKGLEWVSGISSSGGNKYYADSVKGRFTISRDNSKNTLYLQMNSLRAEDTAVYYCARAIRPCISAPCYYDDAMDVWGQGTLVTVSS
VL: QSVLTQPPSASGTPGQRVTISCTGSSSNIGSNYVSWYRQLPGTAPKLLIYSDSQRPSGVPDRFSGSKSGTSASLAISGLRSEDEADYYCGSWDYSLSAYVFGGGTKLTVL
binding [4]: binds

B8: P001023 (antibody, V domains shown)
VH: QVQLVESGGGVVQPGGSLRLSCAASGYTFTSYVMHWVRQAPGKGLEWVAYINPYNDDTNYNEKFKGRFTISRDNSKNTLYLQMNSLRAEDTAVYYCAKEDYYGSRWGYWGQGTLVTVSS
VL: DIVLTQSPASLAVSPGQRATITCRASKSVSTSGYSYMHWYQQKPGQPPKLLIYLASNLESGVPARFSGSGSGTDFTLTINPVEANDTANYYCQHSRELLTFGQGTKVEIK
binding [8]: binds

B9: P001020 (antibody, V domains shown)
VH: QVQLVESGGGVVQPGGSLRLSCAASGYTFTSYVMHWVRQAPGKGLEWVAYINPYNDDTNYNEKFKGRFTISRDNSKNTLYLQMNSLRAEDTAVYYCAKEDYYGSRWGYWGQGTLVTVSS
VL: DIQMTQSPSSLSASVGDRVTITCRASKSVSTSGYSYMHWYQQKPGKAPKLLIYLASNLESGVPSRFSGSGSGTDFTLTISSLQPEDFATYYCQHSRELLTFGQGTKVEIK
binding [8]: binds

B10: P001007 (IgG) (antibody, V domains shown)
VH: EVQLLESGGGLVQPGGSLRLSCAASGFTFSNYDMSWVRQAPGKGLEWVSAISYDNGNTYYADSVKGRFTISRDNSKNTLYLQMNSLRAEDTAVYYCARNRAWFDYWGQGTLVTVSS
VL: QSVLTQPPSASGTPGQRVTISCSGSSSNIGNNNVYWYQQLPGTAPKLLIYYDSQRPSGVPDRFSGSKSGTSASLAISGLRSEDEADYYCAAWDASLNGYVFGGGTKLTVL
binding [3]: binds

B11: P001018 (huOX108.1) (antibody, V domains shown)
VH: QVQLVQSGAEVKKPGASVKVSCKASGYTFTSYVMHWVRQAPGQGLEWMGYINPYNDDTNYNEKFKGRVTMTRDTSTSTVYMELSSLRSEDTAVYYCAREDYYGSRWGYWGQGTLVTVSS
VL: DIVLTQSPASLAVSPGQRATITCRASKSVSTSGYSYMHWYQQKPGQPPKLLIYLASNLESGVPARFSGSGSGTDFTLTINPVEANDTANYYCQHSRELLTFGQGTKVEIK
binding [9]: no binding (tested: 300 nM)

B12: P001018 scFv mutant H3-Y102K (scFv)
scFv: QVQLVQSGAEVKKPGASVKVSCKASGYTFTSYVMHWVRQAPGQGLEWMGYINPYNDDTNYNEKFKGRVTMTRDTSTSTVYMELSSLRSEDTAVYYCAREDYYGSRWGKWGQGTLVTVSSGGGGSGGGGSGGGGSDIVLTQSPASLAVSPGQRATITCRASKSVSTSGYSYMHWYQQKPGQPPKLLIYLASNLESGVPARFSGSGSGTDFTLTINPVEANDTANYYCQHSRELLTFGQGTKVEIK
binding [10]: binds
binding [11]: binds

B13: P001018 scFv mutant H3-Y102T (scFv)
scFv: QVQLVQSGAEVKKPGASVKVSCKASGYTFTSYVMHWVRQAPGQGLEWMGYINPYNDDTNYNEKFKGRVTMTRDTSTSTVYMELSSLRSEDTAVYYCAREDYYGSRWGTWGQGTLVTVSSGGGGSGGGGSGGGGSDIVLTQSPASLAVSPGQRATITCRASKSVSTSGYSYMHWYQQKPGQPPKLLIYLASNLESGVPARFSGSGSGTDFTLTINPVEANDTANYYCQHSRELLTFGQGTKVEIK
binding [10]: binds
binding [11]: binds
